Positions count from the first letter of the chain named. Names may count otherwise. No constants are given. Whether binding was seen depends on the method and setting. Binding can be weak; no strength is given. For some assays here: Sequences can lack the tags named with a protein.
B1: MOM1-P3 fused to GAL4-AD (domain or fragment, UniProt Q9M658 1660-2001)
chain: TSVAEPHISGSDACEMEISEPGPQVERSTFANLFHEGGVEHSAGVTALVPSLLNNGTEQIAVQPVPQIPFPVFNDPFLHELEKLRRESENSKKTFEEKKSILKAELERKMAEVQAEFRRKFHEVEAEHNTRTTKIEKDKNLVIMNKLLANAFLSKCTDKKVSPSGAPRGKIQQLAQRAAQVSALRNYIAPQQLQASSFPAPALVSAPLQLQQSSFPAPGPAPLQPQASSFPSSVSRPSALLLNFAVCPMPQPRQPLISNIAPTPSVTPATNPGLRSPAPHLNSYRPSSSTPVATATPTSSVPPQALTYSAVSIQQQQEQQPQQSLSSGLQSNNEVVCLSDDE
B2: MOM1-P3 harboring CMM3-M1 (V1994A/V1995A), fused to GAL4-AD (domain or fragment, UniProt Q9M658 1660-2001)
chain: B1 chain with V335A, V336A
B3: MOM1-P3 harboring CMM3-M2 (V1994A/V1995A/C1996A/L1997A/S1998A), fused to GAL4-AD (domain or fragment, UniProt Q9M658 1660-2001)
chain: B1 chain with V335A, V336A, C337A, L338A, S339A

Amino acid sequences for entries named in this document (tags omitted). A change or cut given only in a name is not applied to a line headed by its entry.
UniProt F4JYG0: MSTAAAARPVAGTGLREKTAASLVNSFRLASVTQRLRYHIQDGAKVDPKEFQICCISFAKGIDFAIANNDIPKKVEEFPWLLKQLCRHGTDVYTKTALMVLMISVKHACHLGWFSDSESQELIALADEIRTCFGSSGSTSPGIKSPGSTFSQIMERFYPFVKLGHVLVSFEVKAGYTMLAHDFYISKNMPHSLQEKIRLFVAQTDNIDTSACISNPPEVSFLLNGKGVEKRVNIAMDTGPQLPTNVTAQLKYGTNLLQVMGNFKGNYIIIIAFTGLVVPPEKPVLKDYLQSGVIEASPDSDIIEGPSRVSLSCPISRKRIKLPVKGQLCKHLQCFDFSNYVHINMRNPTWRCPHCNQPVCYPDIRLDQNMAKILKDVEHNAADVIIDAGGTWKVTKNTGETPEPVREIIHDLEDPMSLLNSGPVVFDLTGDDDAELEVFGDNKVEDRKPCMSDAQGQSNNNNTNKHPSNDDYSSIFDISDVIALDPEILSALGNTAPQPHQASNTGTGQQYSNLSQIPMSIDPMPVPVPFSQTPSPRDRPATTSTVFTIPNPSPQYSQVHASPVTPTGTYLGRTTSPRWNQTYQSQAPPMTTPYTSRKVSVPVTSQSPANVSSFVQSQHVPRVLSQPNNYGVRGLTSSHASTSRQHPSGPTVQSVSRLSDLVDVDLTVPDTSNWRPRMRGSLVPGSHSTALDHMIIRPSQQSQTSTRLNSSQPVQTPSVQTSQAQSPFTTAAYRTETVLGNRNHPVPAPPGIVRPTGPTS
UniProt Q9FLP6: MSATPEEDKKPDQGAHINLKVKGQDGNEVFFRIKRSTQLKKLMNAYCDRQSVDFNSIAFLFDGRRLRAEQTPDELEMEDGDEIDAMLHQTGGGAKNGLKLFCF

Columns and labels:
[1] = biological target: PIAL2 harboring the SIM mutations, fused to GAL4-BD (Arabidopsis) (UniProt F4JYG0); experiment: two-hybrid; GAL4-AD (pGADT7, AH109) and GAL4-BD (pGBKT7, Y187) fusions mated; growth on -Leu-Trp-His with 3 mM 3-amino-1,2,4-triazole
[2] = biological target: CMM2 domain of MOM1 fused to GAL4-BD (Arabidopsis); experiment: as above

Row | Molecule | binding [1] | binding [2]
1 | SUMO2 as tested against GAL4-BD-PIAL2 with the SIM mutations (S4C Fig) (from UniProt Q9FLP6 1-103) | no binding | 
2 | Full-length MOM1 fused to GAL4-AD (from UniProt Q9M658 1-2001) | binds | 
3 | B1 |  | binds
4 | B2 |  | binds
5 | B3 |  | binds

Source: publication PMC6084981
